Source: the supplement of paper PMC10849652
The other results are listed elsewhere or left out.

The chains behind the UniProt entries cited, without tags or fusion partners. Where a name states a change or a piece, a line headed by the entry shows the natural chain unless it says otherwise.
UniProt Q9NZ08: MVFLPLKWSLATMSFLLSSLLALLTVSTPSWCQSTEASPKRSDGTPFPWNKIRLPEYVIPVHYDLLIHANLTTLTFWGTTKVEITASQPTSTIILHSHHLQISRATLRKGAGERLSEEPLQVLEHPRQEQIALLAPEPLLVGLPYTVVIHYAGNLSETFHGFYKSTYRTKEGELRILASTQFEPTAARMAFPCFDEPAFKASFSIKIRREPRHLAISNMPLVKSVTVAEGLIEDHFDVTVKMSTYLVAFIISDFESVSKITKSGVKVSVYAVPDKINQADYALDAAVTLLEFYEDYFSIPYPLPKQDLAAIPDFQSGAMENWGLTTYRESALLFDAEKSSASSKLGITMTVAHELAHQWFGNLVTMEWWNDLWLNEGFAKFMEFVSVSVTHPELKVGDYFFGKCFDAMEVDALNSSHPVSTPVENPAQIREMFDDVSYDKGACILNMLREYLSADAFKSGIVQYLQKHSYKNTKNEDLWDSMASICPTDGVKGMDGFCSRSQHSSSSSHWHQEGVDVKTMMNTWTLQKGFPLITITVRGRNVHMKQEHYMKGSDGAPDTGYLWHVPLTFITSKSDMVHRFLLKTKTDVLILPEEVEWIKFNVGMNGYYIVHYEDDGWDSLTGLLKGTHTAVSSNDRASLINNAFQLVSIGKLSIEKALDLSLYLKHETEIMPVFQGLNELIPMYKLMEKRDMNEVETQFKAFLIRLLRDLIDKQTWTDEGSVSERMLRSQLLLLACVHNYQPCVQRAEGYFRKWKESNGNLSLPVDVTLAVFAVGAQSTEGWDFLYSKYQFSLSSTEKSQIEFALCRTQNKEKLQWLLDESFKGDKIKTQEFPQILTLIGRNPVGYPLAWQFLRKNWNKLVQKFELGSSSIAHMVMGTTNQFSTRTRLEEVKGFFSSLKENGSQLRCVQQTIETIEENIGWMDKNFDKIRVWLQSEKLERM
UniProt Q7Z2K6: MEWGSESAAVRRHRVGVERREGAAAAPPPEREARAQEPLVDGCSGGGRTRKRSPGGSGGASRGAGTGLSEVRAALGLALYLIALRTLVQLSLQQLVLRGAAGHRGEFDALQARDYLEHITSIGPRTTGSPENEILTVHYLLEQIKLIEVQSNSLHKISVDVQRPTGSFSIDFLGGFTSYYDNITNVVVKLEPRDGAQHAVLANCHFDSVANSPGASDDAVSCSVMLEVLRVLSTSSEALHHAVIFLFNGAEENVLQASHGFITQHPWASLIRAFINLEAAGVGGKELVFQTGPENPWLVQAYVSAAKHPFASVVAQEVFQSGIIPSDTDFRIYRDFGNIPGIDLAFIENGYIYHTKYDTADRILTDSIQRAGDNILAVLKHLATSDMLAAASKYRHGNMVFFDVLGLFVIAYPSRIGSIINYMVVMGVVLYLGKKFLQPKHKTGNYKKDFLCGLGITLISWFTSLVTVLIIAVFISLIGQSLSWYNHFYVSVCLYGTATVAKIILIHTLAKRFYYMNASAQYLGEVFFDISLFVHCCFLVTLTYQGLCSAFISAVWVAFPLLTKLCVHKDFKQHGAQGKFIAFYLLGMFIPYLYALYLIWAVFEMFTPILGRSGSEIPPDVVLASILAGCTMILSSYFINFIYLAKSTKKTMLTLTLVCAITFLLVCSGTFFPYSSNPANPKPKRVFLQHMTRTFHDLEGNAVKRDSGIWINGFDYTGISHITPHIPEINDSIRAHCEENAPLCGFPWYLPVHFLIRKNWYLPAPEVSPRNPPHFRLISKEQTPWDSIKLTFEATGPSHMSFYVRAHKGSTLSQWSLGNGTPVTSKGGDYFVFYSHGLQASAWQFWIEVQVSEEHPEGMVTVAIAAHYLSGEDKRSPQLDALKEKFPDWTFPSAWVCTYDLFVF
UniProt Q9GZU8: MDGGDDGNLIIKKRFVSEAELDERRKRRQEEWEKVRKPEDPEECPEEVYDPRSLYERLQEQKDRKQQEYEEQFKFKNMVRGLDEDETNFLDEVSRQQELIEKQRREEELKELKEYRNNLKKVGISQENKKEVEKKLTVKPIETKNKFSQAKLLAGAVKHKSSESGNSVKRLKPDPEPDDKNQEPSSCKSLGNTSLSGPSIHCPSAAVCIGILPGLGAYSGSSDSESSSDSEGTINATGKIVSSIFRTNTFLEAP
UniProt Q969X5: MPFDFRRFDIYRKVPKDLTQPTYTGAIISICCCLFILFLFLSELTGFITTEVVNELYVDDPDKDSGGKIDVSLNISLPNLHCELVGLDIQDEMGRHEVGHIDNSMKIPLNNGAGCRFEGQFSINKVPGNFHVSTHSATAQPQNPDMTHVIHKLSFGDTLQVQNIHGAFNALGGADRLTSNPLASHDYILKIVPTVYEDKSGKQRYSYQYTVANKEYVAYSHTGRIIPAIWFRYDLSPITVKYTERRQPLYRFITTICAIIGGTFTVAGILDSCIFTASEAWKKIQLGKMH
UniProt P16930: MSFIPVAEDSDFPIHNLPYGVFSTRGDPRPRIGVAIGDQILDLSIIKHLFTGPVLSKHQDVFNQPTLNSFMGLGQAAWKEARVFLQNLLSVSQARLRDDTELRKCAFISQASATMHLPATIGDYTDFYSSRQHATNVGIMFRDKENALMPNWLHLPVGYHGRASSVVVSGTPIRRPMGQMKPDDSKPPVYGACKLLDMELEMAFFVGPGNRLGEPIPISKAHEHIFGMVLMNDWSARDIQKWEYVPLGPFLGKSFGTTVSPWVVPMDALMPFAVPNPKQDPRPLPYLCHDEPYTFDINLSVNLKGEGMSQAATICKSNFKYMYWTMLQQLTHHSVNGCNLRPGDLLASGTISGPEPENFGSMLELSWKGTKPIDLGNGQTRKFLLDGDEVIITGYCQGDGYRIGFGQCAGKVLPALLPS
UniProt Q96A65: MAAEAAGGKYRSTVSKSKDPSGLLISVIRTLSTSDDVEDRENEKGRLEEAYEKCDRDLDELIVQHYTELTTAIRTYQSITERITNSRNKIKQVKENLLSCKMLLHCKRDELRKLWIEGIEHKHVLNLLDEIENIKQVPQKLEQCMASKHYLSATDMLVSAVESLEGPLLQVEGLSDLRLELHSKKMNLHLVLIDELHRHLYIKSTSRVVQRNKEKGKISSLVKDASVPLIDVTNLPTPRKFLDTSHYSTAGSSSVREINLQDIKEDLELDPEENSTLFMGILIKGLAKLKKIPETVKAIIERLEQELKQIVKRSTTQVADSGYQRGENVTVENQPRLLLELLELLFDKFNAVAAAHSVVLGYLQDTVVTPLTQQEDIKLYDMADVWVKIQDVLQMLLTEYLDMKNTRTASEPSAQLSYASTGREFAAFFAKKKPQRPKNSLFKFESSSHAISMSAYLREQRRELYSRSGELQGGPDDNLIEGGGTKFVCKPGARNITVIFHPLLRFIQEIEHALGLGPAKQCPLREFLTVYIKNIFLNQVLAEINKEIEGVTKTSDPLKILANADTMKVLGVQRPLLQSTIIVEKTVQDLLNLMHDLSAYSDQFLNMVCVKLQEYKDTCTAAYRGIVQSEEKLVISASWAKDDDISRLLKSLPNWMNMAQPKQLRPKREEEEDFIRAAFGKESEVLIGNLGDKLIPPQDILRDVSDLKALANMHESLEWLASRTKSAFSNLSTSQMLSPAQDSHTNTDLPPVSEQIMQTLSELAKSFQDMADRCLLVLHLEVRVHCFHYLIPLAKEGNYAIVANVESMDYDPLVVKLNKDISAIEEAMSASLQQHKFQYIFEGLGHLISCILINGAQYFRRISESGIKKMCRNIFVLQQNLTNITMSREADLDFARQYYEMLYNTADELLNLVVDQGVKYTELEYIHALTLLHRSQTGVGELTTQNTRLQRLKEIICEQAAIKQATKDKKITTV
UniProt Q9NPD3, whole entry, looked up: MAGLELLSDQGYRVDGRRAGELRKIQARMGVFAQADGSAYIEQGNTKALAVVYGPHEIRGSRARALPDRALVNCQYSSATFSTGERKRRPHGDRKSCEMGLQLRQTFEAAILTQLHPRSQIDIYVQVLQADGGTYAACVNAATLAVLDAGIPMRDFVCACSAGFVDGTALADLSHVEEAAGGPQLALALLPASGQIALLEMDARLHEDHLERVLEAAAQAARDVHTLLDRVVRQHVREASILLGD
UniProt A0FGR8: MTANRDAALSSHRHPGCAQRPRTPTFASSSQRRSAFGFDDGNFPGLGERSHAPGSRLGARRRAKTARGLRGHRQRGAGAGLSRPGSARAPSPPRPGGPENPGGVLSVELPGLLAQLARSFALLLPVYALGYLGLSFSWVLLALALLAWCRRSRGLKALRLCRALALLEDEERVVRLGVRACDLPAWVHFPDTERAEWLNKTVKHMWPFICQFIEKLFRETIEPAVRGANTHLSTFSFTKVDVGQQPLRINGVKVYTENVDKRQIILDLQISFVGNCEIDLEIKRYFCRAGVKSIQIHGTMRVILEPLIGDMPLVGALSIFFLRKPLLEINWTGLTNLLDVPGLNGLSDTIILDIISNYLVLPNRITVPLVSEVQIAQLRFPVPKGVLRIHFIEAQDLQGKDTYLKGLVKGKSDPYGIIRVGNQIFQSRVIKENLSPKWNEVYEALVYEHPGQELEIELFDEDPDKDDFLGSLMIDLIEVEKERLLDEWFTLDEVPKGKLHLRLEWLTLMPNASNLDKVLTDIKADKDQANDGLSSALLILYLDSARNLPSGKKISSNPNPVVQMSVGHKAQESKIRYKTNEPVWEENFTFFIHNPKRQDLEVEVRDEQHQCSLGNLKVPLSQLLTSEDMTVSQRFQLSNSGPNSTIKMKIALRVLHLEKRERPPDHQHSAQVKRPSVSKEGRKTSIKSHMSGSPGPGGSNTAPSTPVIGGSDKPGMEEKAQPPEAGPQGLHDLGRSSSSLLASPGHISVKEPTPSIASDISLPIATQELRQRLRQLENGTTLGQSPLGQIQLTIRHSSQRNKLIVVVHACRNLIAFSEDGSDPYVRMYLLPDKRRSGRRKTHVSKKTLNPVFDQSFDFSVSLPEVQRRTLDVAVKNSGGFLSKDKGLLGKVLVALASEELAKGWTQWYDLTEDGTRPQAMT
UniProt O75477: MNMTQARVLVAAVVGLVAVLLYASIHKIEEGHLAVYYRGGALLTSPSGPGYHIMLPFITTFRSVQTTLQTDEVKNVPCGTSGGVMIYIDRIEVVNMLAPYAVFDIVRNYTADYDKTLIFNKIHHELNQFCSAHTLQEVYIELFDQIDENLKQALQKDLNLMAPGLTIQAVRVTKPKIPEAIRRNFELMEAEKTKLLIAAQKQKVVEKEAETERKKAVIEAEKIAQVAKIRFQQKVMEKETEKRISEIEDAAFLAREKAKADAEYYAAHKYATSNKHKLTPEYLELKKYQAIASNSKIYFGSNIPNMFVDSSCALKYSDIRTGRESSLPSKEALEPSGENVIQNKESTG
UniProt Q9Y2J2, whole entry, looked up: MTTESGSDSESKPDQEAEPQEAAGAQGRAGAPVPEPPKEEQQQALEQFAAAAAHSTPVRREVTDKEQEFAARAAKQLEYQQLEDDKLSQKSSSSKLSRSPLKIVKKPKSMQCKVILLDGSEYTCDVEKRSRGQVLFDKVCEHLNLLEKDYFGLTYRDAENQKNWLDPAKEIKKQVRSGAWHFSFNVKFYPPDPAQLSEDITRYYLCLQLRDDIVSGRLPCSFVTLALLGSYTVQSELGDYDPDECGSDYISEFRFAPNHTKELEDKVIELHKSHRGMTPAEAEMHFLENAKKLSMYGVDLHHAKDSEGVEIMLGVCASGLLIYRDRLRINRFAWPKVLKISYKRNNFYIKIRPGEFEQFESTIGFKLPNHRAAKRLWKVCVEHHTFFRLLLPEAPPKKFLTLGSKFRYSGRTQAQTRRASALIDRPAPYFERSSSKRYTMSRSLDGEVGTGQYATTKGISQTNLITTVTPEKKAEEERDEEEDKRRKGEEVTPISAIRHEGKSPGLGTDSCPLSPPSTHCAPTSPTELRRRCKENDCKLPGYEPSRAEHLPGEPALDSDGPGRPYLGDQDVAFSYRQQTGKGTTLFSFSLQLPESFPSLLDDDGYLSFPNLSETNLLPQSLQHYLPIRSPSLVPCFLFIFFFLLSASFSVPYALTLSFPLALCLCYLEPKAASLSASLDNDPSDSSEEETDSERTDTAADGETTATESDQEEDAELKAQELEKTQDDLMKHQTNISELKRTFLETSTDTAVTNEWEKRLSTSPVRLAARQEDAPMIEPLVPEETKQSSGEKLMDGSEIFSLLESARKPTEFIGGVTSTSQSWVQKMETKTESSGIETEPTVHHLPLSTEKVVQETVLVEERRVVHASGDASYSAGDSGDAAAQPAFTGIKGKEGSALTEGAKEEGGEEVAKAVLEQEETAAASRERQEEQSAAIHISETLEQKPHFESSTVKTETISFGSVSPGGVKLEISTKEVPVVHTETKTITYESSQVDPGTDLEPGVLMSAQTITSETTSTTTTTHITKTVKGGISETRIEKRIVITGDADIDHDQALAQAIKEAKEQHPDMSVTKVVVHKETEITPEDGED

What was measured:
Assay in all cases: log2 fold change, soluble protein after heating vs DMSO (PISA); higher = thermal stabilisation; K562 cells, 10 uM, 30 min; active = over 0.2 and 3.5 SD of the protein, either way, in both replicates (recomputed)
[1] = compound: CC1=C(C=C(C=C1)NC(=O)C2=CC(=CC=C2)C(C)(C)C#N)NC3=CC4=C(C=C3)N=CN(C4=O)C
Procedure, shortened: (§1)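 Quantification of soluble protein used TMTpro 16plex LC-MS/MS, with channel sums equalised. Samples were the supernatant after 21,000xg for 90 min of pooled aliquots from K562 cells (2×10^6 cells/mL) treated with 10 μM compound for 30 min, heated for 3 min over 48°C-58°C, and extracted in PBS with 0.5% NP-40 at 4°C. Values, from duplicates, describe thermal stability against control samples on a log2 fold-change scale.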

[2] = compound: CC1=C(C=C(C=C1)NC(=O)C2=CC(=CC=C2)N(C)C)NC(=O)C3=CC=C(C=C3)O
Procedure, shortened: as §1

[3] = compound: CC1=CC=C(C=C1)SC2=C3C=C(SC3=CN=C2)C(=O)N
Procedure, shortened: as §1

[4] = compound: CC1=NC(=CC=C1)C2=C(N=C(N2)C(C)(C)C)C3=CC4=NC=CN=C4C=C3
Procedure, shortened: as §1

[5] = compound: CCCCN(Cc1ccc(C(=O)NO)cc1)C(=O)Nc1ccccc1 [Nexturastat A]
Procedure, shortened: as §1

[6] = compound: CCCS(=O)(=O)Nc1ccc(F)c(C(=O)c2c[nH]c3ncc(-c4ccc(Cl)cc4)cc23)c1F [vemurafenib]
Procedure, shortened: as §1

[7] = compound: CCCS(=O)(=O)Nc1ccc(F)c(C(=O)c2c[nH]c3ncc(Cl)cc23)c1F
Procedure, shortened: as §1

[8] = compound: CCCc1cc(C)[nH]c(=O)c1CNC(=O)c1cc(-c2ccnc(N3CCN(C)CC3)c2)cc2c1cnn2C(C)C
Procedure, shortened: as §1

[9] = compound: CCN(CC)Cc1ccc2cc(COC(=O)Nc3ccc(C(=O)NO)cc3)ccc2c1 [givinostat]
Procedure, shortened: as §1

[10] = compound: CCN(CCCOc1ccc2c(Nc3cc(CC(=O)Nc4cccc(F)c4)[nH]n3)ncnc2c1)CCOP(=O)(O)O [barasertib]
Procedure, shortened: as §1

Measured: log2 fold change

ERAP1 isoform 2 (UniProt Q9NZ08)
inactive: [1] 0 | [2] -0.001 | [3] 0.002 | [4] -0.065 | [5] 0.059 | [6] -0.046 | [7] -0.012 | [8] 0.035 | [9] 0.016 | [10] -0.013

ERMP1 (UniProt Q7Z2K6)
inactive: [1] -0.035 | [2] 0.01 | [3] 0.018 | [4] -0.025 | [5] -0.012 | [6] -0.008 | [7] -0.032 | [8] -0.004 | [9] -0.019 | [10] -0.021

FAM192A (UniProt Q9GZU8)
inactive: [1] -0.062 | [2] 0.007 | [3] 0 | [4] -0.016 | [5] -0.115 | [6] -0.039 | [7] 0.032 | [8] -0.036 | [9] -0.04 | [10] 0.016

ERGIC1 (UniProt Q969X5)
inactive: [1] 0.011 | [2] -0.013 | [3] 0.02 | [4] 0.013 | [5] 0.028 | [6] -0.018 | [7] -0.022 | [8] 0 | [9] 0.005 | [10] 0.002

FAH (UniProt P16930)
inactive: [1] -0.009 | [2] 0.021 | [3] 0.224 | [4] -0.013 | [5] -0.041 | [6] -0.003 | [7] -0.012 | [8] -0.109 | [9] -0.162 | [10] -0.032

FAM118A (UniProt Q9NWS6)
inactive: [1] 0.057 | [2] 0.086 | [3] 0.101 | [4] -0.163 | [5] -0.031 | [6] 0.182 | [7] 0.114 | [8] -0.016 | [10] 0.112

EXOC4 (UniProt Q96A65)
inactive: [1] -0.021 | [2] 0.029 | [3] 0.021 | [4] 0.001 | [5] 0.209 | [6] -0.003 | [7] 0.098 | [8] 0.01 | [9] 0.133 | [10] 0.139

ETNK1 (UniProt Q9HBU6)
inactive: [1] 0.241 | [2] -0.054 | [3] 0.022 | [4] 0.02 | [5] -0.177 | [6] 0.006 | [7] 0.172 | [8] -0.076 | [9] 0.042 | [10] 0.005

EXOSC4 (UniProt Q9NPD3)
inactive: [1] 0.017 | [2] 0 | [3] 0.08 | [4] -0.039 | [5] 0.022 | [6] 0.047 | [7] 0.069 | [8] -0.046 | [9] -0.014 | [10] -0.007

ESD (UniProt P10768)
inactive: [1] 0.008 | [2] 0.014 | [3] 0.037 | [4] 0 | [5] -0.1 | [6] 0.024 | [7] 0.03 | [8] -0.072 | [9] -0.184 | [10] -0.01

ESYT2 isoform 2 (UniProt A0FGR8)
inactive: [1] 0.007 | [2] -0.011 | [3] 0.003 | [4] 0.024 | [5] 0.002 | [6] 0.01 | [7] -0.016 | [8] -0.037 | [9] 0.029 | [10] 0.029

ERLIN1 (UniProt O75477)
inactive: [1] 0.011 | [2] -0.018 | [3] 0.028 | [4] -0.01 | [5] 0.031 | [6] -0.02 | [7] 0.014 | [8] 0.065 | [9] 0.014 | [10] 0.028

EPB41L3 (UniProt Q9Y2J2)
inactive: [1] 0.009 | [2] 0.031 | [3] 0.044 | [4] 0.03 | [5] -0.028 | [6] -0.006 | [7] -0.011 | [8] 0 | [9] -0.086 | [10] 0.002

Random excerpt: 2 entries already listed.
FAH (UniProt P16930)
inactive: [1] -0.009 | [2] 0.021 | [3] 0.224 | [4] -0.013 | [5] -0.041 | [6] -0.003 | [7] -0.012 | [8] -0.109 | [9] -0.162 | [10] -0.032

ESYT2 isoform 2 (UniProt A0FGR8)
inactive: [1] 0.007 | [2] -0.011 | [3] 0.003 | [4] 0.024 | [5] 0.002 | [6] 0.01 | [7] -0.016 | [8] -0.037 | [9] 0.029 | [10] 0.029

(listing goes on)

FAM207A (UniProt Q9NSI2)
inactive: [1] -0.086 | [2] 0.11 | [3] -0.006 | [4] 0.024 | [5] -0.047 | [6] 0.038 | [7] -0.006 | [8] 0.44 | [9] 0.148 | [10] -0.036
